According to US20170304388A1, “NEW INDICATION OF CARDIOVASCULAR DRUGS FOR PREPARATION OF CANCER INHIBITION PHARMACEUTICAL COMPOSITION” (LAUNX BIOMEDICAL CO., LTD., priority 2014, published 2017):

Tested on: cancer cell lines
Assay: Growth inhibitory effects on the panel of cancer cell lines
Format: cell-based

## Clc1ccc2c(c1)CCc1cccnc1C2=C1CCNCC1 [Desloratadine]
  inhibition effect on different cancer cell lines (in words): significant inhibition effect
